The source of these data is the supplement of paper PMC11006884.

By UniProt entry, the sequences of proteins in these tests, tags left out. Where a name states a change or a piece, a line headed by the entry shows the natural chain unless it says otherwise.
UniProt Q9UNS1: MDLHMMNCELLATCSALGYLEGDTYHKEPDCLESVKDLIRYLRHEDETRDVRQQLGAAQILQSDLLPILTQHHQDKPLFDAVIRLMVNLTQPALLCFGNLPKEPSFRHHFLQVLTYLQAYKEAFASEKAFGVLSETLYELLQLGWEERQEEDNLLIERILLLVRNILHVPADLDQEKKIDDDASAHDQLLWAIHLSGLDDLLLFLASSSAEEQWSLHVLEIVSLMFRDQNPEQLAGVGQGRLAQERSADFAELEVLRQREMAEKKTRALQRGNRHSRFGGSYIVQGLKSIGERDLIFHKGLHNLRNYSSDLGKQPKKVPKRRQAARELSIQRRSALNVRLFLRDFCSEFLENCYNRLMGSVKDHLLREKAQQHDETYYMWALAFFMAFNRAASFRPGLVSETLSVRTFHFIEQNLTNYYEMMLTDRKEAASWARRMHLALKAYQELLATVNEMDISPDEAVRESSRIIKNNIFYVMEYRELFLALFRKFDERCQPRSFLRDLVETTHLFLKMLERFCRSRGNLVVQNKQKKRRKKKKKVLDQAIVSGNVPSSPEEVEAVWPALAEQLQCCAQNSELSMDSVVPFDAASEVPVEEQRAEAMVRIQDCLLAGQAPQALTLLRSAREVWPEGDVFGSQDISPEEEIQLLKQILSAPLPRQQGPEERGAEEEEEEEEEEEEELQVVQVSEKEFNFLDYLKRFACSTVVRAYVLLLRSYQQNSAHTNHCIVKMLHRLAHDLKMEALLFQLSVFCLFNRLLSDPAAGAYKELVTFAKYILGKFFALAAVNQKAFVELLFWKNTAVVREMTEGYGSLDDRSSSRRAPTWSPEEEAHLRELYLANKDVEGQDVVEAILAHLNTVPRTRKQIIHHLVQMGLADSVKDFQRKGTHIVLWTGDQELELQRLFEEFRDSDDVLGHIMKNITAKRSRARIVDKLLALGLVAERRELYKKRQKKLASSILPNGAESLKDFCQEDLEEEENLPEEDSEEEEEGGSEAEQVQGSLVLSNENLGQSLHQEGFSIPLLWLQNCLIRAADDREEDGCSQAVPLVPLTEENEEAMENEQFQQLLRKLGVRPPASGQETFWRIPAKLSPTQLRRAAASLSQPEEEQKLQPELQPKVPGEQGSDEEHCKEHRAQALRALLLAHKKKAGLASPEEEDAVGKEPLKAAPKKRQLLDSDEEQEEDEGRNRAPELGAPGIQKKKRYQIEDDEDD
UniProt Q9UPQ9, whole entry: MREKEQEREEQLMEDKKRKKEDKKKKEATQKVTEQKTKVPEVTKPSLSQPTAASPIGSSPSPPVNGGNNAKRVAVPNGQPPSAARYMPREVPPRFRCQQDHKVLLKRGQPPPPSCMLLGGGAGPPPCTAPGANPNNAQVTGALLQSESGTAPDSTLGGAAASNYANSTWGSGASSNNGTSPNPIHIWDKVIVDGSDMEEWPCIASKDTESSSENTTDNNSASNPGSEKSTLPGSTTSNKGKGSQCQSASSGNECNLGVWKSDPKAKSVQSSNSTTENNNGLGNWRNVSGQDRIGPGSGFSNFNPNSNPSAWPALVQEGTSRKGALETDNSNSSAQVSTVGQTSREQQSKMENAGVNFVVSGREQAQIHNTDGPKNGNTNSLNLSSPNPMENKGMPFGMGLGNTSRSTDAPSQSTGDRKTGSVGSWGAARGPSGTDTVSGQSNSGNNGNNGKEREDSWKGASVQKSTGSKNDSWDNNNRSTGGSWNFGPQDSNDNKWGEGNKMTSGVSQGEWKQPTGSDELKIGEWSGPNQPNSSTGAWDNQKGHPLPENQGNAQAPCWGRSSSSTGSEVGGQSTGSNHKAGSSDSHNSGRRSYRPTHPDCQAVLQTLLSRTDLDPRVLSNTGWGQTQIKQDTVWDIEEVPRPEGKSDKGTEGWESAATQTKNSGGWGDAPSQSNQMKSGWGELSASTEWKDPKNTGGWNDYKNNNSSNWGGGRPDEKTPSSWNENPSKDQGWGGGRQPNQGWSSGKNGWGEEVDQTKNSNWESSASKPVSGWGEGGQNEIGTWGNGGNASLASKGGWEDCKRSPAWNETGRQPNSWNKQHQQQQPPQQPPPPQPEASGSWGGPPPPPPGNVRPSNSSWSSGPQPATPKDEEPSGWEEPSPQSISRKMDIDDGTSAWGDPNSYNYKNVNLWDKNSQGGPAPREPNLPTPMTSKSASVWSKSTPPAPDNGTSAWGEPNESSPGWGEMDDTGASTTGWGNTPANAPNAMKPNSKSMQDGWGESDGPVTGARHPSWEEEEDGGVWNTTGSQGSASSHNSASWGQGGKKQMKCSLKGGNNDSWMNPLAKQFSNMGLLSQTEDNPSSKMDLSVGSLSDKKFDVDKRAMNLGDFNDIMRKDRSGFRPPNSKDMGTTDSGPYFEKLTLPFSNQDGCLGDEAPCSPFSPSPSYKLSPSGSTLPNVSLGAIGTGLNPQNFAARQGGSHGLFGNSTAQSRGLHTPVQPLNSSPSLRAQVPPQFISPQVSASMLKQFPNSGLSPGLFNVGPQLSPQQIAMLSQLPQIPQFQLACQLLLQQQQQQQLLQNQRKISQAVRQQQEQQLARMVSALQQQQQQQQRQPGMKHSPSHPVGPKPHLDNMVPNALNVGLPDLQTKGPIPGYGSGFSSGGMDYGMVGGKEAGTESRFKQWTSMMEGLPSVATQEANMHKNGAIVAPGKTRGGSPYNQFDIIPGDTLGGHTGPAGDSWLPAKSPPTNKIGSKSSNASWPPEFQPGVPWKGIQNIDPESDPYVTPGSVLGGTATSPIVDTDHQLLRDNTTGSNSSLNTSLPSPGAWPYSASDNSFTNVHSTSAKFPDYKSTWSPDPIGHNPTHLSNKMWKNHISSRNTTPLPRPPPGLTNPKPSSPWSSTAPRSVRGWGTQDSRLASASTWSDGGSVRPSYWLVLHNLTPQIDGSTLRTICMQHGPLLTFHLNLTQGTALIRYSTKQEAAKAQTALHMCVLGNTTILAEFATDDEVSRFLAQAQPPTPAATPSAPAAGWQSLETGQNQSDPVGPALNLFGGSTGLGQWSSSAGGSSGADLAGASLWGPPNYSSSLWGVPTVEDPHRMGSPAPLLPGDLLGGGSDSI
UniProt Q9Y3P9: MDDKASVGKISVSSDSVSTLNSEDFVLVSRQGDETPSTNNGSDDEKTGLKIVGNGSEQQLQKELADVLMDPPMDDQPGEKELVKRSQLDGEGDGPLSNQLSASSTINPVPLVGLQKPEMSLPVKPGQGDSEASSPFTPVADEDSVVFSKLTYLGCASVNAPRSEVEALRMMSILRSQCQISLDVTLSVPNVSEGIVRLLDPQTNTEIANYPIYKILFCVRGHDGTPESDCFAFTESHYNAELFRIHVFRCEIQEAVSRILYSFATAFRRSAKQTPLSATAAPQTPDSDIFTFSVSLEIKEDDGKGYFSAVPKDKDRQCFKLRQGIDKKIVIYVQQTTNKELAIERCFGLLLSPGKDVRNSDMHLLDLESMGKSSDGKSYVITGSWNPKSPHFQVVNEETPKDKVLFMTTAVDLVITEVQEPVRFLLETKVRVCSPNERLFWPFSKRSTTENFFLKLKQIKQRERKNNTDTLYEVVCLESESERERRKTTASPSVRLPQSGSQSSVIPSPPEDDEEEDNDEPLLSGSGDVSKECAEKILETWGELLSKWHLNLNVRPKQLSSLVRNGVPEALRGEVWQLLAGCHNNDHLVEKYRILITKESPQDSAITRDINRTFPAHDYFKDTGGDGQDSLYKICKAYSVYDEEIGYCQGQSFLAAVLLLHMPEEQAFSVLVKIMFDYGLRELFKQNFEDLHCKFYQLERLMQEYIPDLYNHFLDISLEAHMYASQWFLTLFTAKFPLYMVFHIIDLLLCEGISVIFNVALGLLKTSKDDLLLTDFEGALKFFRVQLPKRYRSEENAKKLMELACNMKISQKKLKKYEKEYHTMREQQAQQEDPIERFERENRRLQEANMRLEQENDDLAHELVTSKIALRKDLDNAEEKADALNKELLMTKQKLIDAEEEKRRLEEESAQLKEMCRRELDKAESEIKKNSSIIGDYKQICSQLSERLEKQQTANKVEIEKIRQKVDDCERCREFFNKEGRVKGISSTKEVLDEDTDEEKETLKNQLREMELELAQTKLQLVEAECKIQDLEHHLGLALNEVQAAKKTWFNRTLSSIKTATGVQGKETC
UniProt Q9UK61: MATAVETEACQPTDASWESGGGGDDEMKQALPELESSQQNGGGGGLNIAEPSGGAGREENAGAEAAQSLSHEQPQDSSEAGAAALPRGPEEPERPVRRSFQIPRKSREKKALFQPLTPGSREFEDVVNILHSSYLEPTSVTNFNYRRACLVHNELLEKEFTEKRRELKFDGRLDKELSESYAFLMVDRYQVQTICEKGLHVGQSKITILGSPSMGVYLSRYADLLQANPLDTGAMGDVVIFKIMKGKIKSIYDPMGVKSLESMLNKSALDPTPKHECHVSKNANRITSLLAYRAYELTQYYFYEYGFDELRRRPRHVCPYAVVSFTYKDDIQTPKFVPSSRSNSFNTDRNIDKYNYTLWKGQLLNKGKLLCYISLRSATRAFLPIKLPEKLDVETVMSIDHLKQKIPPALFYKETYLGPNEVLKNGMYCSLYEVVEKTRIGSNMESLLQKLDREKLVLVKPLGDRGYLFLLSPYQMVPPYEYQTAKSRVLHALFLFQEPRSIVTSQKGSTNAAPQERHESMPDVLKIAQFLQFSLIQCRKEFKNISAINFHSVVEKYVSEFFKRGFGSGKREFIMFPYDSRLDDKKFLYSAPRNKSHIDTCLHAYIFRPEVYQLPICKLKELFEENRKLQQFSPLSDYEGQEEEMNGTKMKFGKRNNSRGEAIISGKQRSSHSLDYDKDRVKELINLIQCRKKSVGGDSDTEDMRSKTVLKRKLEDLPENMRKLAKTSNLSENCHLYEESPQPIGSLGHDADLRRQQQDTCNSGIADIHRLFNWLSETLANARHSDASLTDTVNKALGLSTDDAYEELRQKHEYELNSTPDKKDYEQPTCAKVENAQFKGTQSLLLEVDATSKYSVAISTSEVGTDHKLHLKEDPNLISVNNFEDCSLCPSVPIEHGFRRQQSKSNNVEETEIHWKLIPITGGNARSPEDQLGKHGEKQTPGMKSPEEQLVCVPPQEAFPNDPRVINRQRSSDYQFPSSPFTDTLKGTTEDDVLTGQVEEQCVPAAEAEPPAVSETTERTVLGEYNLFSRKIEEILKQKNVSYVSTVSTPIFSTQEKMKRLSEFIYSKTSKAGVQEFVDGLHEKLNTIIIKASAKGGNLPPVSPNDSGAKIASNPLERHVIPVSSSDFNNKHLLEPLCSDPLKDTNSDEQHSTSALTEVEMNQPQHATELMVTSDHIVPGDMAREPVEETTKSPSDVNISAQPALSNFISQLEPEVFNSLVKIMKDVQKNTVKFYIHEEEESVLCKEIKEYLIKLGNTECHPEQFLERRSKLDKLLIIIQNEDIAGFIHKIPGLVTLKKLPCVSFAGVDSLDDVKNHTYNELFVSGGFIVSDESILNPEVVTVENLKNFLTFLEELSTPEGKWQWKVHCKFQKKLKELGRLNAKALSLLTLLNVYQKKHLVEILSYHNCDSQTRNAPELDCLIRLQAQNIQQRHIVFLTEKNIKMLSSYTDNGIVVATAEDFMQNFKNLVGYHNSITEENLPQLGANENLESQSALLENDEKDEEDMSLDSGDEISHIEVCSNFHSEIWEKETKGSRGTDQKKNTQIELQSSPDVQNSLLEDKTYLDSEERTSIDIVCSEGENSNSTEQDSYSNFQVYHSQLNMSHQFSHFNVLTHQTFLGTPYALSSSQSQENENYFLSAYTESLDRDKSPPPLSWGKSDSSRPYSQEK
UniProt Q9UJX4, whole entry: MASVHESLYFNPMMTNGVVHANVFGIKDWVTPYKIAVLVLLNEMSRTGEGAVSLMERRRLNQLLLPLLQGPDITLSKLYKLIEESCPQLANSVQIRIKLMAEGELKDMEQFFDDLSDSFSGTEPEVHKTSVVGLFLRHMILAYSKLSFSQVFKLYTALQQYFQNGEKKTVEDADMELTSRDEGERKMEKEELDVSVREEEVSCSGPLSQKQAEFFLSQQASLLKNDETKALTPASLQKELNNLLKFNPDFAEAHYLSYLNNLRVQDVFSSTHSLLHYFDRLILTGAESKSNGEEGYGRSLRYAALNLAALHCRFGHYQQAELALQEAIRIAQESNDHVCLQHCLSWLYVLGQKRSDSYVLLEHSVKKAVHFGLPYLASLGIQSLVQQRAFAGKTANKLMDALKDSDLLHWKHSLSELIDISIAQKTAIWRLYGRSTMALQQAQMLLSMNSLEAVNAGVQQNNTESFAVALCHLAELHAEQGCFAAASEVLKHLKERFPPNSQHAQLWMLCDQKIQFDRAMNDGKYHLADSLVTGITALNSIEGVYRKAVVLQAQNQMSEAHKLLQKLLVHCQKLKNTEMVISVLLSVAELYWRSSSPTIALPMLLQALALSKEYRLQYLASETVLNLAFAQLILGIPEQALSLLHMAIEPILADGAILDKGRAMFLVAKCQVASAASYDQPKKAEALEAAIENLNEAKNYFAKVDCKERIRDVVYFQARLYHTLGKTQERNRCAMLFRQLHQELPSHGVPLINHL

Shown are results outside the selection of targets with a hit, which stands elsewhere. Single values of this set are uncertain. This is a selection; strong and weak results do not stand in their true shares.

Compound in the assay: COC(=O)/C=C/c1ccccc1 [methyl cinnamate]
Nature of the assay: log2 ratio of iodoacetamide-alkyne labeling of the cysteine site, DMSO over compound (competition); higher = stronger covalent engagement of the cysteine by the compound, active = 1 or more. Conditions: 500 µM; treatment time 1 h; system: HEK293T cell lysate. In a few lines:
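After 1 h at ambient temperature with vehicle or electrophile (500 µM), HEK293T lysate (2 mg/mL) was labelled for 1 h with iodoacetamide alkyne and clicked to sCIP-TMT reagents. Pooled samples were trypsin-digested overnight at 37 °C, streptavidin-enriched, acid-eluted and analysed by Orbitrap Eclipse LC-MS/MS with FAIMS, then quantified in FragPipe over three replicates with duplicate channels. A cysteine's log2 competition ratio is its mean control-channel over mean compound-channel reporter intensity. Cysteines quantified in only one replicate were not included.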
Regarding TIMELESS C606 (UniProt Q9UNS1), the “log2 ratio of iodoacetamide-alkyne labeling” value (shortened to “log2 ratio”) is inactive: 0.422.

For the target TNRC6B C600 (UniProt Q9UPQ9), the “log2 ratio” value was inactive: 0.193.

With HERC5 C994 (UniProt Q9UII4), the “log2 ratio” value is inactive: -0.0849.

RABGAP1 C1026 (UniProt Q9Y3P9): the “log2 ratio” value was inactive: -0.203.

As to HERC5 C424 (UniProt Q9UII4), the “log2 ratio” value was inactive: 0.185.

Regarding BCAP29 C171 (UniProt Q9UHQ4), the “log2 ratio” value is inactive: 0.41.

As for HECTD1 C1995 (UniProt Q9ULT8), the “log2 ratio” value is inactive: 0.228.

On to NOSIP C250 (UniProt Q9Y314), for which the “log2 ratio” value was inactive: 0.0786.

As to USP22 C185 (UniProt Q9UPT9), the “log2 ratio” value is inactive: -0.0563.

Regarding UniProt Q9UK61_C734, the “log2 ratio” value is inactive: -0.0272.

On to NUFIP1 C317 (UniProt Q9UHK0), for which the “log2 ratio” value is inactive: 0.164.

Take SAMHD1 C80 (UniProt Q9Y3Z3): the “log2 ratio” value was inactive: 0.159.

For UniProt Q9Y2K2_C223, the “log2 ratio” value was inactive: 0.378.

For BAZ2A C943 (UniProt Q9UIF9), the “log2 ratio” value is inactive: 0.388.

As for NISCH C403 (UniProt Q9Y2I1), the “log2 ratio” value was inactive: -0.15.

EIF3L C417 (UniProt Q9Y262): the “log2 ratio” value was inactive: 0.192.

Consider CORO1C C420 (UniProt Q9ULV4), for which the “log2 ratio” value is inactive: 0.475.

For the target NOP58 C139 (UniProt Q9Y2X3), the “log2 ratio” value is inactive: 0.151.

With ACIN1 C691 (UniProt Q9UKV3), the “log2 ratio” value was inactive: 0.259.

Consider ANAPC5 C86 (UniProt Q9UJX4), for which the “log2 ratio” value was inactive: 0.147.

Regarding CHORDC1 C5 (UniProt Q9UHD1), the “log2 ratio” value was inactive: 0.126.
